From paper PMC12208539
These are yes or no findings as the source states them, for the method shown. Binding seen in cells or lysates may run through a third protein. A yes stands for co-enrichment or nearness to the bait. Other partners may have been found. A no says only that the protein was not detected with the bait. Where a sequence is shown, tags or fusion partners need not be part of it.

The chains behind the UniProt entries cited, without tags or fusion partners.
UniProt Q14258: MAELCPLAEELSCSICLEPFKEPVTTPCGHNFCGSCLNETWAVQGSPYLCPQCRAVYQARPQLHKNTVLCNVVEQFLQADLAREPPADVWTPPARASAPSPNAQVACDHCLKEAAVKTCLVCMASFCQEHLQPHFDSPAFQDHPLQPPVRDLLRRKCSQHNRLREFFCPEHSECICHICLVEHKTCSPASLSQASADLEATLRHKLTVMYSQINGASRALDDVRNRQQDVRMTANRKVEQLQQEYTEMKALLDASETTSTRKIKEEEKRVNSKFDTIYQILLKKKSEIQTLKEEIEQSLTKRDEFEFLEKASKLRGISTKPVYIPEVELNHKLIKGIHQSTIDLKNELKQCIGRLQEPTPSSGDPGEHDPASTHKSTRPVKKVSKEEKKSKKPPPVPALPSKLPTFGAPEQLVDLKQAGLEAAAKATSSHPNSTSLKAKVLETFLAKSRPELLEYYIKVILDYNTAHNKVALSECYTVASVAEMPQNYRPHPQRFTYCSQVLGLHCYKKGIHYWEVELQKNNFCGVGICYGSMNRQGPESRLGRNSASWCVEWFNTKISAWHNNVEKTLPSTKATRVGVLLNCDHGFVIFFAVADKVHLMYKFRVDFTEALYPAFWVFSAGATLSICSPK

Molecular target: T1, BirA-fusion PLEK2 (UniProt Q9NYT0)
T1 sequence: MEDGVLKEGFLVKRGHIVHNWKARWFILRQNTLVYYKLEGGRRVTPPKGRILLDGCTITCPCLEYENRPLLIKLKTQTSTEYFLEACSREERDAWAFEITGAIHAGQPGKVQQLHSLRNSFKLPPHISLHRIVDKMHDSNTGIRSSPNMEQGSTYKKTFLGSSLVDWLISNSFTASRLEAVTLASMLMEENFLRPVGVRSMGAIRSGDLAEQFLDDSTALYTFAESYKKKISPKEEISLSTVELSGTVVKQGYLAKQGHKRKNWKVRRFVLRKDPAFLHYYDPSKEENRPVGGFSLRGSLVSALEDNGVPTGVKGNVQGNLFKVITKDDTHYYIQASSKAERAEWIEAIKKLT
Assay: proximity labelling; biotin conjugation by BirA-fusion PLEK2 in HEK293T cells, streptavidin pulldown of the lysate, Western blotting

TRIM25 in HEK293T lysate (from UniProt Q14258 1-630)
binding: no binding
